Data as given in PubChem BioAssay AID1259308 (NCATS, 2017)
Here is one part, drawn at random, of about 59,000 deposited reagents. About 1,510 of them (2.6%) were called active. 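Calls use total luciferase alone and ignore viability, so some active siRNAs may act by altering cell number.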 Reagents against one gene are numbered here. Further read-outs or replicates are left out here.

Screen: 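Candidate targets for better recombinant protein yield in mammalian cells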 (primary screen)
Cell system: human HEK293 embryonic kidney cells stably expressing firefly luciferase (HEK-CMV-Luc2-Hygro)
Reagents: single siRNA against human genes, 0.8 pmol siRNA per well
Duration: 72 h
Measured: 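Luciferase light (ONE-Glo) measured on one replicate plate set and viability (CellTiter-Glo) on the other, scaled to a negative control siRNA, with robust z-scores and luciferase per cell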
Direction: total luciferase, z-score and total luciferase, % of control: higher = more reporter protein produced
Hit rule: 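Active when the median/MAD z-score for overall luciferase is greater than 3; a gene was taken forward for validation with new siRNAs if at least two of its three siRNAs passed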
Calls: active = raised luciferase; inactive = no rise

GFRA4 (GDNF family receptor alpha 4) #1 showed total luciferase, z-score -1.18; total luciferase, % of control 58.4; inactive.
After knock-down of GFRA4 (GDNF family receptor alpha 4) #2, the record shows total luciferase, z-score -0.797; total luciferase, % of control 66; inactive.
Knock-down of GFRA4 (GDNF family receptor alpha 4) #3 gave: total luciferase, z-score 4.91; total luciferase, % of control 180; active.
Knock-down of WDR46 (WD repeat domain 46) #1 resulted in: total luciferase, z-score -0.348; total luciferase, % of control 75; inactive.
Silencing of WDR46 (WD repeat domain 46) #2 resulted in: total luciferase, z-score -1.9; total luciferase, % of control 44.1; inactive.
Against WDR46 (WD repeat domain 46) #3 the deposit lists total luciferase, z-score -2.16; total luciferase, % of control 39; inactive.
After knock-down of C1S (complement C1s) #1, the screen gave total luciferase, z-score 0.281; total luciferase, % of control 87.5; inactive.
With knock-down of C1S (complement C1s) #2 the results were total luciferase, z-score 0.125; total luciferase, % of control 84.4; inactive.
For C1S (complement C1s) #3, the values are total luciferase, z-score -0.756; total luciferase, % of control 66.8; inactive.
BBX (BBX high mobility group box domain containing) #1 showed total luciferase, z-score 2.09; total luciferase, % of control 124; inactive.
With knock-down of BBX (BBX high mobility group box domain containing) #2 the results were total luciferase, z-score -0.295; total luciferase, % of control 76; inactive.
With knock-down of BBX (BBX high mobility group box domain containing) #3, the screen gave total luciferase, z-score -0.277; total luciferase, % of control 76.4; inactive.
Depletion of OLAH (oleoyl-ACP hydrolase) #1 resulted in: total luciferase, z-score 0.296; total luciferase, % of control 87.8; inactive.
OLAH (oleoyl-ACP hydrolase) #2 showed total luciferase, z-score 2.15; total luciferase, % of control 125; inactive.
OLAH (oleoyl-ACP hydrolase) #3 gave total luciferase, z-score -0.594; total luciferase, % of control 70.1; inactive.
For TRPC5 #1, the values are total luciferase, z-score -0.267; total luciferase, % of control 76.6; inactive.
Depletion of TRPC5 #2 resulted in: total luciferase, z-score -1.79; total luciferase, % of control 46.2; inactive.
With knock-down of TRPC5 #3, the screen gave total luciferase, z-score 2.08; total luciferase, % of control 123; inactive.
CNTNAP3 (contactin associated protein family member 3) #1 showed total luciferase, z-score -0.127; total luciferase, % of control 79.4; inactive.
CNTNAP3 (contactin associated protein family member 3) #2 showed total luciferase, z-score -1.5; total luciferase, % of control 52.1; inactive.
CNTNAP3 (contactin associated protein family member 3) #3 showed total luciferase, z-score -2; total luciferase, % of control 42.1; inactive.
Silencing of DCAF12L2 (DDB1 and CUL4 associated factor 12 like 2) #1 came out at: total luciferase, z-score -0.383; total luciferase, % of control 74.3; inactive.
DCAF12L2 (DDB1 and CUL4 associated factor 12 like 2) #2 gave total luciferase, z-score -0.378; total luciferase, % of control 74.4; inactive.
After knock-down of DCAF12L2 (DDB1 and CUL4 associated factor 12 like 2) #3, the record shows total luciferase, z-score 0.16; total luciferase, % of control 85.1; inactive.
PDLIM4 (PDZ and LIM domain 4) #1 scored total luciferase, z-score -1.11; total luciferase, % of control 59.8; inactive.
PDLIM4 (PDZ and LIM domain 4) #2 scored total luciferase, z-score -0.492; total luciferase, % of control 72.1; inactive.
Depletion of PDLIM4 (PDZ and LIM domain 4) #3 gave: total luciferase, z-score -2.36; total luciferase, % of control 35; inactive.
GOLGA5 (golgin A5) #1 showed total luciferase, z-score -0.0286; total luciferase, % of control 81.3; inactive.
GOLGA5 (golgin A5) #2 showed total luciferase, z-score -0.129; total luciferase, % of control 79.3; inactive.
Knock-down of GOLGA5 (golgin A5) #3 came out at: total luciferase, z-score 0.919; total luciferase, % of control 100; inactive.
VN2R1P (vomeronasal 2 receptor 1, pseudogene) #1 gave total luciferase, z-score 0.806; total luciferase, % of control 97.9; inactive.
VN2R1P (vomeronasal 2 receptor 1, pseudogene) #2 scored total luciferase, z-score 0.672; total luciferase, % of control 95.3; inactive.
After knock-down of VN2R1P (vomeronasal 2 receptor 1, pseudogene) #3, the screen gave total luciferase, z-score -0.0414; total luciferase, % of control 81.1; inactive.
